Among all 53,000 sequences or so, about 3,700 (7%) were called active.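 Rule for the calls: active = gene knockdowns whose robust z-score for IL-1 alpha signal is at least 2 or at most -2, so actives lie on both sides; inactive = the rest.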 Some of the results follow.
assay: Components of the Cytosolic LPS Sensing Pathway: Gene Identification via Genome-wide siRNA Screen; settings: RAW264.7 macrophages, IL-1a HTRF, actives lie on both sides, screened at 100 nM (by protocol), cells primed 5 h with Pam3CSK4 first;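 note: robust z of the log signal after scaling to non-targeting control siRNA wells of the plate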
In short: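 Using IL-1a HTRF as read-out, the screen measured release from RAW264.7 cells after 48h siRNA knockdown (100 nM), 5 h Pam3CSK4 priming and 24 h cytosolic LipidA. Values were expressed relative to negative-control wells as robust z-scores.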

Row | Sequence | z-score
1 | GGAUGGGUCAAUGUUCUACTT against V1rb6 | inactive: 0.232
2 | GGUUGGAGCACUAGUGAGATT against Imp4 | inactive: 0.204
3 | GGGAUAAGUACUCUGCUAATT against Sorcs3 | inactive: -0.146
4 | GGGCUGUUUGGAAUAAUAATT against Gmppb | inactive: -0.0465
5 | GCAUGUUGUCGACACAUGCTT against Bcl6 | active: 2.39
6 | GGAAGAGAGCAGAAAGAAGTT against Trim35 | inactive: -0.135
7 | GCCAGAAGAGCAGAAAGUUTT against Enpp5 | inactive: -1.11
8 | GCACUACACCUCCAGUUCGTT against Gne | inactive: 0.164
9 | GGUCUGCCUUUGAAAAAAATT against Bckdha | inactive: -0.475
10 | CGAGGAUUUCGAUUCCAUUTT against Mael | inactive: 0.384
11 | CCUUGUUCCCGAAAUACCGTT against Krr1 | inactive: -0.471
12 | GGUACACGUCUUGUCUCUGTT against Spry2 | inactive: -0.367
13 | GGGAAGGAUUAGCAUGUCGTT against Rida | inactive: -1.33
14 | GGAGAUCUACUUUCUCAACTT against Crtac1 | inactive: -0.071
15 | GGGUGGUGUUUUAACCCUUTT against Mep1b | inactive: -1.48
16 | GGAGCUUGUGAACACCUUCTT against Nudc | inactive: 0.718
17 | CGUGUACGACAUCUCCUAUTT against Rilpl2 | inactive: -1.84
18 | GGCUGUUUAUUGUAAUGGATT against Nek5 | inactive: 1.12
19 | CCUCAAACCAUCAACAACCTT against Six3 | active: -2.04
20 | GCCUCGAUUGGCCACAUUUTT against Atp5l | active: 4.61
21 | GGAACACAAUAGUACAUACTT against Slc2a4 | active: 3.98
22 | CCUACAGUGACCUUUCCCGTT against Apcs | inactive: -1.22
23 | GGGAGAGAACGUGUUCUUCTT against P2rx6 | inactive: -0.477

Row | Sequence | z-score
24 | GGAAACCUGGAAACAGUUUTT against Apol7c | inactive: 0.377
25 | GUGACAAGAGAAGUCAAAATT against Ear1 | inactive: 0.67
26 | CGGAGCCAAAUACGAAGGGTT against Jph3 | inactive: -0.548
27 | CCUUCGACACCUUACAAGUTT against Ndufa12 | inactive: -0.282
28 | CCCUAAUUUAUUCUCGGCGTT against Septin5 | inactive: 0.471
29 | GCGAGAGAUUCUUUCCCUGTT against Traf6 | inactive: -1.24
30 | GGGACUUUUUUUCAAACACTT against 2900026A02Rik | inactive: -0.814
31 | CCGUCCGAUGAAAAACAGGTT against Prm1 | inactive: -0.128
32 | GGAUUUUCGAUUCUCUUACTT against Glg1 | active: 2.25
33 | GCAGAUUGCAUCGGAAGAATT against BC061237 | inactive: 0.47
34 | CGGCAGUCAGCAAAACAAATT against Pnpt1 | inactive: -1.6
35 | CUGGUUAGAAAGAUCUUCCTT against Grxcr1 | inactive: -0.403
36 | GGAGCAUUUUGGAUAAGAUTT against Nup88 | inactive: -1.31
37 | GGACAUUUAAGUGACUUGUTT against Dtnbp1 | inactive: 1.15
38 | CGUUGGUUAUUAGUUGAUUTT against Luc7l2 | inactive: -0.379
39 | GCUCAAUGCUUUCUUGUCATT against 0610010F05Rik | inactive: -0.17
40 | GGAAAUUCUGGCAUAAAUUTT against Cd86 | inactive: -0.732
41 | GGUAACAAAUAAAGGAUACTT against Dgke | inactive: -0.874
42 | CGGGCUGGGAAGUUGUUAGTT against Bcl10 | inactive: 0.0153
43 | GGUCUAGAGUUACCAUUCATT against Aqp9 | inactive: -0.954
44 | GCACUUUUUUGCUGCUGAUTT against Olfr1263 | inactive: 0.112
45 | GCGAGAGAUGAAAUGGGUGTT against Tbc1d10c | inactive: 1.07
46 | GCAGGUGUAUACUAUGUUATT against G6pc | inactive: 1.88

At a glance, part of the list above.
Row | Sequence | z-score
27 | CCUUCGACACCUUACAAGUTT against Ndufa12 | inactive: -0.282
28 | CCCUAAUUUAUUCUCGGCGTT against Septin5 | inactive: 0.471
29 | GCGAGAGAUUCUUUCCCUGTT against Traf6 | inactive: -1.24
30 | GGGACUUUUUUUCAAACACTT against 2900026A02Rik | inactive: -0.814

Carrying on.

Row | Sequence | z-score
47 | GGGAAGAAGACUGACAAGCTT against Lars | active: 2.03
48 | GCAGAAAUACGAAAUCAACTT against Tnnt2 | inactive: 0.046
49 | GGACAAGGAAUACUACGAGTT against Ltbr | inactive: 0.0172
50 | GGAUCAGCUGUCAUCUGUGTT against Spsb4 | inactive: -0.303
51 | CGCAGUGGACUCAUCUUGATT against Sestd1 | inactive: -0.65
52 | GGACCAAUUUUUUCAGUUGTT against Rhag | inactive: 0.495
53 | GGAGGAGUGCAAGAAGAAGTT against Fahd1 | inactive: 0.327
54 | GUUCUAUGUCCGGGAGCCATT against Ndufc1 | inactive: 1.51
55 | GGAUGUACAUUCUACCUAUTT against Bap1 | inactive: -0.239
56 | GGAGUUGCCCUCAUCUUCATT against Casp6 | inactive: -1.59
57 | CCAUGAAGAUAUCCUACACTT against Olfr77 | inactive: 1.54
58 | GGCUAAGAGACGAAACACUTT against Rpl37 | inactive: -0.116
59 | GCCACCACUUAGUUUAACATT against Cpa4 | inactive: 0.22
60 | GCCCAAAAGACCUCAUAUUTT against Lef1 | inactive: -0.518
61 | CCUAUUGUGCAAAUGAACCTT against Cd164 | inactive: -0.591
62 | GCGGAGUCUUUGGCUUAGATT against Lratd2 | inactive: 1.03
63 | CCAUUUUAGACUACAUCCATT against Naa60 | inactive: 0.873
64 | GAUGCCUGACGAGAUAUUUTT against Scgb3a1 | inactive: -0.576
65 | GGAUGGAUGACUCCUAUUGTT against Gse1 | inactive: -1.17
66 | GGUAUGAAACCGUAUAAAUTT against Zfp60 | inactive: 0.00529
67 | GGUACUCAAGGUUCAGACCTT against Tfe3 | inactive: 0.153
68 | GGAUAUGGAAGAAGUUGUGTT against Olfr1089 | active: -2.2
69 | GGCAGCCCUCAAGUUAAUCTT against Zfp612 | inactive: -0.552

Reference: PubChem BioAssay AID1508600 (Functional Genomics Laboratory (NCATS/FGL), 2020)
